Reference: US20240058455A1, “BIOORTHOGONAL LINKERS AND REACTIONS” (The General Hospital Corporation, priority 2020, published 2024)
Some results were stated once for a whole list of compounds, not compound by compound. At least one structure is not confirmed: it was looked up by name or label, or the drawing left a doubt.

Assay: Endpoint cleavage of AF594-C2TCO-AF594 with tetrazines (HPLC, fluorescence detection)
Settings: for cleavage: 15 + excess tetrazine, buffered solution pH 7.4, endpoint 24 h, HPLC
Description: As an initial assessment of cleavage efficiency, 15 was reacted with an excess of selected tetrazines in buffered solution at pH 7.4 and analyzed the reaction mixtures at an endpoint of 24 h by HPLC with fluorescence detection. […] One hypothesis is that this is not only due to slow tautomerization, but also limited elimination of the respective B1/B2 intermediate. The inability to achieve complete release with Pyr2Tz highlights the advantages of a cleavage directing group.
Release measurements with AF594-C2TCO-AF594: Analytical stock solutions and buffers. 10 mM stock solutions of the release probe AF594-C2TCO-AF594 was prepared and further diluted with citrate-phosphate buffer (as indicated below), so that the final concentration of DMSO in buffer was never higher than 2%. Tetrazine stock solutions were prepared in DMSO at concentrations ranging from 10-100 mM and diluted with citrate-phosphate buffer (as indicated below), so that the final concentration of DMSO in buffer was never higher than 2%. Citrate-phosphate buffer (10 mM) was prepared by dilution from standard stock solutions of 0.1 M citric acid and 0.2 M Na2HPO4 with water and the pH verified and adjusted as needed to within ±0.05 pH units by digital pH metering.
Endpoint measurements with AF594-C2TCO-AF594. Analytical samples for endpoint-release reactions were prepared as follows: AF594-C2TCO-AF594 stock solution was diluted with citrate-phosphate buffer to a final concentration of 50 μM directly in an LCMS sample vial. Tetrazine stock solutions were diluted with aqueous buffer to give 100 or 200 μM concentrations, added to the TCO sample and mixed (1:1) to initiate the cleavage/release reaction. Samples were kept at 37° C. and HPLC analyses were done after 24 h. The released AF594-amine was detected using an RF-20Axs fluorescence detector and confirmed by a LCMS-2020 mass spectrometer (ESI) implemented in the Nexera X2® UHPLC system.

| SMILES | cleavage [%] | quantitative cleavage of C2TCO (H-tetrazines with directing group (FIG. 13)) [%] |
| --- | --- | --- |
| O=C(O)CCc1nnc(-c2ncccn2)nn1 [PymPA] | > 99 | – |
| O=C(O)CCc1nncnn1 [HPA] | – | > 99 |
| O=C(O)CCc1nnc(-c2ccccn2)nn1 [PyrPA] | > 99 | – |
